Test results from the supplement of paper PMC7877785.
± gives the uncertainty stated by the source. Many of these values have a large error.

Experiment: self-splicing fitness, log relative to wild type (ln ratio); higher = more splicing; Tetrahymena group I intron in knt gene, E. coli kanamycin selection, DiMSum; sequences stand for … in CUCUCU…GGAGGGAAAAGUUAUCAGGCAUGCACCUGGUAGCUAGUCUUUAAACCAAUAGAUUGCAUCGGUUUAAAAGGCAAGACCGUCAAAUUGCGGGAAAGGGGUCAACAGCCGUUCAGUACCAAGUCUCAGGGGAAACUUUGAGAUGGCCUUGCAAAGGGUAUGGUAAUAAGCUGACGGACAUGGUCCUAACCACGCAGCCAAGUCCUAAGUCAACAGAUCUUCUGUUGAUAUGGAUGCAGUUCACAGACUAAAUGUCGGUCGGGGAAGAUGUAUUCUUCUCAUAAGAUAUAGUCGGACCUCUCCUUAAUGGGAGCUAGCGGAUGAAGUGAUGCAACACUGGAGCCGCUGGGAACUAAUUUGUAUGCGAAAGUAUAUUGAUUAGUUUUGGAGUACUCGUGGUCG
Procedure, shortened: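 Pooled colonies went to amplicon sequencing on an Illumina HiSeq 2500 after six replicate transformations. The plates were LB agar with 100 μg/mL carbenicillin, 50 μM IPTG and 0.2% rhamnose, with or without 25 μg/mL kanamycin, incubated overnight at 37°C or 30°C. The E. coli BL21(DE3) library had all eight P1ex-region intron nucleotides randomised, the intron placed in the knt kanamycin-resistance gene on pET-22b(+). DiMSum fitness is the error-weighted combination of replicate fold changes, kanamycin against none, normalised to wild type.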

Row | Sequence | self-splicing fitness (ln) (30 °C) | self-splicing fitness (ln) (37 °C)
1 | UCAUAGCAAUAUUACGGGGC | -4.21 ± 1 | –
2 | GUAUAGCAAUAUUACGUUCC | – | -0.238 ± 0.62
3 | UAAGAGCAAUAUUACGACAC | -5.01 ± 0.72 | -2.77 ± 0.63
4 | AUGGAGCAAUAUUACGUCAU | -2.29 ± 0.52 | –
5 | CGUAAGCAAUAUUACGUCAC | -4.76 ± 1 | –
6 | UCGUAGCAAUAUUACGGCCC | -1.2 ± 0.61 | -1.99 ± 0.52
7 | GAUCAGCAAUAUUACGCCCC | – | -0.687 ± 0.87
8 | AUAGAGCAAUAUUACGGUCC | – | -4.36 ± 0.59
9 | UUCAAGCAAUAUUACGCCAC | -4.22 ± 0.76 | -2.33 ± 0.5
10 | AAGCAGCAAUAUUACGAGAC | -4.36 ± 0.6 | –
11 | UCCGAGCAAUAUUACGGAUC | -3.85 ± 0.53 | –
12 | ACGCAGCAAUAUUACGAGAC | -5.22 ± 1 | -1.94 ± 0.56
13 | CCGUAGCAAUAUUACGUAUC | -5.1 ± 0.72 | –
14 | CGGCAGCAAUAUUACGAGAU | -1.99 ± 0.19 | -2.81 ± 0.27
15 | ACAGAGCAAUAUUACGCGUC | -5.64 ± 0.58 | –
16 | CACGAGCAAUAUUACGGUUC | -4.71 ± 0.58 | –
17 | UUCGAGCAAUAUUACGCAUC | – | -3.51 ± 0.61
18 | CACCAGCAAUAUUACGCCCC | – | -2.68 ± 0.62
19 | GAUGAGCAAUAUUACGAACC | -0.828 ± 1.4 | –
20 | UGCAAGCAAUAUUACGAAGC | -4.66 ± 1 | –
21 | UUGUAGCAAUAUUACGAGGC | -3.07 ± 0.27 | -1.77 ± 0.31
22 | GUCGAGCAAUAUUACGUCAG | -3.08 ± 0.16 | -2.98 ± 0.19
23 | UGGGAGCAAUAUUACGGGUC | -2.57 ± 0.55 | -0.939 ± 0.5
24 | CAAUAGCAAUAUUACGGAUC | – | -2.92 ± 0.54

A second format for some results above:

| Row | Sequence | self-splicing fitness (ln) (30 °C) | self-splicing fitness (ln) (37 °C) |
| --- | --- | --- | --- |
| 7 | GAUCAGCAAUAUUACGCCCC | – | -0.687 ± 0.87 |
| 8 | AUAGAGCAAUAUUACGGUCC | – | -4.36 ± 0.59 |
| 9 | UUCAAGCAAUAUUACGCCAC | -4.22 ± 0.76 | -2.33 ± 0.5 |

(cont.)

Row | Sequence | self-splicing fitness (ln) (30 °C) | self-splicing fitness (ln) (37 °C)
25 | UCGGAGCAAUAUUACGACCA | -2.47 ± 0.69 | -1.71 ± 0.51
26 | CCUGAGCAAUAUUACGAACC | – | -2.87 ± 0.74
27 | GUCAAGCAAUAUUACGUGUA | -1.8 ± 0.062 | -0.887 ± 0.072
28 | AUUAAGCAAUAUUACGAGCC | -3.27 ± 0.53 | –
29 | ACGGAGCAAUAUUACGAGCC | -4.51 ± 1 | –
30 | CUAUAGCAAUAUUACGUAGC | -4.05 ± 0.31 | -3.11 ± 0.43
31 | AUUGAGCAAUAUUACGCCAC | – | -2.05 ± 1.1
32 | CAAUAGCAAUAUUACGAAAC | -4.91 ± 0.51 | –
33 | AACCAGCAAUAUUACGGGUG | -1.14 ± 0.046 | -0.409 ± 0.064
34 | GGGAAGCAAUAUUACGAUGG | -4.83 ± 0.72 | -2.76 ± 0.54
35 | UUUCAGCAAUAUUACGGGCU | -3.54 ± 0.61 | -1 ± 0.53
36 | UUGGAGCAAUAUUACGAUAU | -3.92 ± 0.6 | –
37 | AACUAGCAAUAUUACGUGCA | -0.72 ± 0.054 | -0.578 ± 0.065
38 | UAGGAGCAAUAUUACGCUCA | -1.55 ± 0.19 | -1.37 ± 0.16
39 | CAAGAGCAAUAUUACGCAGU | – | -3.17 ± 0.52
40 | AUUGAGCAAUAUUACGAAAA | – | -1.62 ± 0.79
41 | AUGGAGCAAUAUUACGAAAC | – | -2.06 ± 0.78
42 | UGCCAGCAAUAUUACGCAAC | -4.28 ± 0.73 | –
43 | GACGAGCAAUAUUACGCGUC | – | -2.2 ± 1.1
44 | GAGGAGCAAUAUUACGAGAC | – | -3.12 ± 0.6
45 | CCGAAGCAAUAUUACGACGC | -3.57 ± 0.6 | -2.98 ± 0.74
46 | UCUAAGCAAUAUUACGUACC | -3.08 ± 0.78 | –
47 | CCGGAGCAAUAUUACGAAUC | – | -3.28 ± 0.52
48 | AUAUAGCAAUAUUACGUAAG | -1.61 ± 0.14 | -0.705 ± 0.19

Row | Sequence | self-splicing fitness (ln) (30 °C) | self-splicing fitness (ln) (37 °C)
49 | AGCCAGCAAUAUUACGCAGC | -3.83 ± 0.52 | –
50 | UUCUAGCAAUAUUACGAAGC | -2.02 ± 0.87 | –
51 | GUCGAGCAAUAUUACGGGAU | -4.74 ± 1 | -0.94 ± 0.66
52 | CGCGAGCAAUAUUACGACCG | -2.81 ± 1.1 | 1.04 ± 0.63
53 | UCCAAGCAAUAUUACGGCCC | -2.47 ± 0.59 | –
54 | GAAGAGCAAUAUUACGAGGC | -3.29 ± 0.54 | -1.8 ± 0.41
55 | AUCGAGCAAUAUUACGGACC | – | -1.29 ± 1.2
56 | CGAGAGCAAUAUUACGACGA | -2.65 ± 1.1 | –
57 | UAAUAGCAAUAUUACGCUUC | -5.43 ± 1 | –
58 | AUCGAGCAAUAUUACGCUCC | -3.41 ± 0.73 | –
59 | UAUUAGCAAUAUUACGAAAG | – | -0.714 ± 0.66
60 | CGUGAGCAAUAUUACGUUCC | – | -3.16 ± 0.53
61 | GUGAAGCAAUAUUACGGACC | -0.562 ± 0.53 | -0.595 ± 1.4
62 | GGGAAGCAAUAUUACGCAUC | -2.36 ± 0.39 | -1.77 ± 0.32
63 | ACGGAGCAAUAUUACGCGGC | – | -2.58 ± 0.53
64 | UAGGAGCAAUAUUACGAUCU | – | -2.61 ± 0.62
65 | GUGAAGCAAUAUUACGAAGC | -2.06 ± 0.08 | -1.06 ± 0.11
66 | CAGGAGCAAUAUUACGGUAC | -3.14 ± 0.64 | -1.13 ± 1.2
67 | UCGGAGCAAUAUUACGUAUC | -2.77 ± 1.1 | –
68 | UUAUAGCAAUAUUACGAUAC | -3.16 ± 0.61 | –
69 | GAUAAGCAAUAUUACGAGAC | -2.71 ± 0.79 | -2.1 ± 0.64
70 | UGCGAGCAAUAUUACGCCAC | – | -1.25 ± 0.7
71 | UUAUAGCAAUAUUACGCCGU | -2.09 ± 0.82 | -2.63 ± 1.1
72 | UAAGAGCAAUAUUACGAAGU | -3.61 ± 0.31 | -1.85 ± 0.41

Whole records from above.
UUCUAGCAAUAUUACGAAGC in the list: self-splicing fitness (ln) (30 °C): -2.02 ± 0.87
CGCGAGCAAUAUUACGACCG in the list: self-splicing fitness (ln) (30 °C): -2.81 ± 1.1; self-splicing fitness (ln) (37 °C): 1.04 ± 0.63

Next part

Row | Sequence | self-splicing fitness (ln) (30 °C) | self-splicing fitness (ln) (37 °C)
73 | ACUGAGCAAUAUUACGUACC | -1.65 ± 0.55 | -1.83 ± 1.1
74 | GUAUAGCAAUAUUACGCAUA | -2.3 ± 0.28 | -0.525 ± 0.27
75 | UAGUAGCAAUAUUACGCCAU | -2.71 ± 1.1 | –
76 | AUUAAGCAAUAUUACGAUCC | -0.418 ± 0.11 | -0.106 ± 0.19
77 | CGUUAGCAAUAUUACGGCGG | -0.628 ± 0.1 | -0.396 ± 0.12
78 | GGUGAGCAAUAUUACGACCC | -4.12 ± 0.6 | -1.89 ± 0.53
79 | CCAGAGCAAUAUUACGCUGG | -3.99 ± 0.61 | -2.98 ± 1.1
80 | UGUUAGCAAUAUUACGCUCU | -1.66 ± 0.16 | -0.371 ± 0.16
81 | UGUUAGCAAUAUUACGAAUC | – | -2.64 ± 0.76
82 | AUAAAGCAAUAUUACGGGUG | -1.03 ± 0.082 | -0.259 ± 0.094
83 | CUGAAGCAAUAUUACGAACC | -0.0743 ± 0.58 | –
84 | CUAAAGCAAUAUUACGCAUC | – | -2.55 ± 0.54
85 | UUUUAGCAAUAUUACGUUCC | -0.317 ± 0.73 | -0.84 ± 0.59
86 | AAUGAGCAAUAUUACGCACG | – | -1.5 ± 0.5
87 | AAUUAGCAAUAUUACGGGCC | -3.81 ± 0.74 | –
88 | AUCGAGCAAUAUUACGAUCC | – | -0.595 ± 1.4
89 | UCCGAGCAAUAUUACGGAAC | – | -2.2 ± 0.56
90 | UCUUAGCAAUAUUACGCCAG | – | -2.48 ± 0.54
91 | ACCUAGCAAUAUUACGGGUG | -1.47 ± 0.071 | -1.1 ± 0.087
92 | UAGUAGCAAUAUUACGCGAC | -2.65 ± 0.66 | –
93 | AGUGAGCAAUAUUACGUCUC | -3.59 ± 0.52 | –
94 | CGGUAGCAAUAUUACGCACC | -2.11 ± 0.69 | –
95 | AGGGAGCAAUAUUACGAGGA | – | -2.88 ± 1.1
96 | CUGCAGCAAUAUUACGACCA | -3.11 ± 0.66 | -1.74 ± 0.62
